The values that follow come from article doi:10.1101/2025.02.25.640118 (bioRxiv, 2025).

In test [1] the target is T1, MsyB (Escherichia coli protein MsyB) (E. coli) (UniProt P25738).
T1 sequence: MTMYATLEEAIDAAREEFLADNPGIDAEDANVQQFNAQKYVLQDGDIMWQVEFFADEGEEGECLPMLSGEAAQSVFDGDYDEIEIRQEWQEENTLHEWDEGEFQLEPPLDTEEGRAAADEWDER
Nature of the test: NMR titration.

For test [2], the target named is T2, MsyB with Q104 L105 mutated to AA (E. coli) (UniProt P25738).
T2 sequence: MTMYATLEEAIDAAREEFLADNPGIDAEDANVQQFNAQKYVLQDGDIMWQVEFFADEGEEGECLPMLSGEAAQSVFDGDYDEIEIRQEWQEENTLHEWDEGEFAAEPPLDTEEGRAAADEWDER
Nature of the test: NMR titration.

A further test concerns the target T3, MsyB^1-103 (E. coli) (UniProt P25738).
T3 sequence: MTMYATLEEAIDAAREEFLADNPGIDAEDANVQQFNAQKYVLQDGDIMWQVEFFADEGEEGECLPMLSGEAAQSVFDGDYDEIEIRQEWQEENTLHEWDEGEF
Nature of the test: NMR titration.

Test [3] has as its target T4, MsyB-His (MsyB with a C-terminal polyhistidine tag, SUMO removed) (E. coli) (UniProt P25738).
T4 sequence: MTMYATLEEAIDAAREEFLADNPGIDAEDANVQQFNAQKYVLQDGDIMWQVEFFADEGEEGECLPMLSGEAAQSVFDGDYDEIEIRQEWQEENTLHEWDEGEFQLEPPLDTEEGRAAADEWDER
Nature of the test: pull-down.

No constants are given. Whether binding was seen depends on the method and setting. For some of these results: In cells and extracts the contact can be indirect. For some of these results: Sequences can lack the tags named with a protein.

Regarding “clamp^M362A, P363A (from UniProt P0A988 1-366)”, in test [1], the binding entry is given as “no binding”.

Turning to “β-clamp (β subunit of DNA polymerase) (from UniProt P0A988 1-366)”, the binding result (in test [2]; with MsyB^1-103 (E. coli)) was “no binding” each time.

B1: Glutamine--fructose-6-phosphate aminotransferase (GlmS) (enzyme, UniProt P17169 1-609)
chain: MCGIVGAIAQRDVAEILLEGLRRLEYRGYDSAGLAVVDAEGHMTRLRRLGKVQMLAQAAEEHPLHGGTGIAHTRWATHGEPSEVNAHPHVSEHIVVVHNGIIENHEPLREELKARGYTFVSETDTEVIAHLVNWELKQGGTLREAVLRAIPQLRGAYGTVIMDSRHPDTLLAARSGSPLVIGLGMGENFIASDQLALLPVTRRFIFLEEGDIAEITRRSVNIFDKTGAEVKRQDIESNLQYDAGDKGIYRHYMQKEIYEQPNAIKNTLTGRISHGQVDLSELGPNADELLSKVEHIQILACGTSYNSGMVSRYWFESLAGIPCDVEIASEFRYRKSAVRRNSLMITLSQSGETADTLAGLRLSKELGYLGSLAICNVPGSSLVRESDLALMTNAGTEIGVASTKAFTTQLTVLLMLVAKLSRLKGLDASIEHDIVHGLQALPSRIEQMLSQDKRIEALAEDFSDKHHALFLGRGDQYPIALEGALKLKEISYIHAEAYAAGELKHGPLALIDADMPVIVVAPNNELLEKLKSNIEEVRARGGQLYVFADQDAGFVSSDNMHIIEMPHVEEVIAPIFYTVPLQLLAYHVALIKGTDVDQPRNLAKSVTVE
For B1, in test [3], the binding entry is recorded as “no binding”.
